This is an account of results in PMC3998039.

For assay [1], the target named is GmMYB73 fused to the GAL4 DNA-binding domain (soybean (Glycine max)) (UniProt Q0PJH5). As to the kind of experiment: two-hybrid; Matchmaker Gold system (Clontech); GmMYB73 on the GAL4 DNA-binding domain (pGBKT7), GL3 or EGL3 on the GAL4 activation domain (pGADT7); growth and blue colour on SD/-Ade/-His/-Leu/-Trp with X-a-Gal and Aureobasidin A.
Assay [2] addresses GmMYB73 fused with nEYFP (soybean (Glycine max)). As to the kind of experiment: split reporter; BiFC in Arabidopsis protoplasts; GmMYB73-nEYFP with GL3- or EGL3-cEYFP, 10 ug of each plasmid; EYFP fluorescence after 16 h in the dark, confocal microscope.

Results are given in words; binding and its absence hold for the method and conditions named. Binding calls can cover weak binding; strength is not graded here. Sequences can lack the tags named with a protein. For some of these results: In cells and extracts the contact can be indirect.

B1: EGL3 fused to the GAL4 activation domain (protein, UniProt Q9CAD0 1-596)
chain: MATGENRTVPDNLKKQLAVSVRNIQWSYGIFWSVSASQPGVLEWGDGYYNGDIKTRKTIQAAEVKIDQLGLERSEQLRELYESLSLAESSASGSSQVTRRASAAALSPEDLTDTEWYYLVCMSFVFNIGEGIPGGALSNGEPIWLCNAETADSKVFTRSLLAKSASLQTVVCFPFLGGVLEIGTTEHIKEDMNVIQSVKTLFLEAPPYTTISTRSDYQEIFDPLSDDKYTPVFITEAFPTTSTSGFEQEPEDHDSFINDGGASQVQSWQFVGEEISNCIHQSLNSSDCVSQTFVGTTGRLACDPRKSRIQRLGQIQEQSNHVNMDDDVHYQGVISTIFKTTHQLILGPQFQNFDKRSSFTRWKRSSSVKTLGEKSQKMIKKILFEVPLMNKKEELLPDTPEETGNHALSEKKRREKLNERFMTLRSIIPSISKIDKVSILDDTIEYLQDLQKRVQELESCRESADTETRITMMKRKKPDDEEERASANCMNSKRKGSDVNVGEDEPADIGYAGLTDNLRISSLGNEVVIELRCAWREGILLEIMDVISDLNLDSHSVQSSTGDGLLCLTVNCKHKGTKIATTGMIQEALQRVAWIC
Regarding B1, the binding result in assay [1] was “binds”.

B2: EGL3 fused with cEYFP (protein, UniProt Q9CAD0 1-596)
chain: B1 chain
With B2, the binding result in assay [2] is recorded as “binds”.

B3: GL3 fused to the GAL4 activation domain (protein, UniProt Q9FN69 1-637)
chain: MATGQNRTTVPENLKKHLAVSVRNIQWSYGIFWSVSASQSGVLEWGDGYYNGDIKTRKTIQASEIKADQLGLRRSEQLSELYESLSVAESSSSGVAAGSQVTRRASAAALSPEDLADTEWYYLVCMSFVFNIGEGMPGRTFANGEPIWLCNAHTADSKVFSRSLLAKSAAVKTVVCFPFLGGVVEIGTTEHITEDMNVIQCVKTSFLEAPDPYATILPARSDYHIDNVLDPQQILGDEIYAPMFSTEPFPTASPSRTTNGFDQEHEQVADDHDSFMTERITGGASQVQSWQLMDDELSNCVHQSLNSSDCVSQTFVEGAAGRVAYGARKSRVQRLGQIQEQQRNVKTLSFDPRNDDVHYQSVISTIFKTNHQLILGPQFRNCDKQSSFTRWKKSSSSSSGTATVTAPSQGMLKKIIFDVPRVHQKEKLMLDSPEARDETGNHAVLEKKRREKLNERFMTLRKIIPSINKIDKVSILDDTIEYLQELERRVQELESCRESTDTETRGTMTMKRKKPCDAGERTSANCANNETGNGKKVSVNNVGEAEPADTGFTGLTDNLRIGSFGNEVVIELRCAWREGVLLEIMDVISDLHLDSHSVQSSTGDGLLCLTVNCKHKGSKIATPGMIKEALQRVAWIC
For B3, in assay [1], the binding entry is reported as “binds”.

B4: GL3 fused with cEYFP (protein, UniProt Q9FN69 1-637)
chain: B3 chain
Turning to B4, the binding result in assay [2] is recorded as “binds”.
